# The whole screen tested about 340,000 compounds, of which about 170 (0.05%) were called active. This list was built around the results that the source calls inconclusive (neither active nor inactive); the mix of calls is not that of the screen. Calls come from the whole dose curve; as a rule, active = well fitted inhibition curve with a large enough effect in the signal ratio, with a control signal flat (not every such curve was filed as active); inconclusive = small, poorly fitted or top-dose-only effect, or effect the other way, or a change in a side signal; inactive = flat fitted curve, though single readings scatter; the % refers to the signal ratio. Where the call is inconclusive, the potency comes from a doubtful curve fit.
# Assay: qHTS Assay to Find Inhibitors of Chronic Active B-Cell Receptor Signaling;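 for activity change, negative = inhibition: plate controls were basal doxycycline-induced cells for no effect and cells given 10 µM MG132 for full effect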
# Conditions: ABC-DLBCL IkBa-CBG/CBR reporter, luminescence ratio (green luciferase fused to IkBa over red control in TMD8 lymphoma cells), 4 h; activity change, negative = inhibition: at 46.1 µM (top of the series)
# Method in brief: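 TMD8 human ABC-DLBCL cells with doxycycline-inducible IκBα–green luciferase fusion and unfused red luciferase, in 0.5% FBS medium; compounds up to 46 uM, 4 h at 37C. Green/red luminescence ratio, filter-overlap corrected, fitted to concentration-response curves.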
# Potency is the fitted concentration of half-maximal effect.
Compound,Potency,"activity change, negative = inhibition"
O=C(N/N=C/c1ccco1)c1[nH]ncc1Br,"inconclusive: 22.4 µM [falling, partial curve]",
O=C(N/N=C/c1nn(-c2ccccc2)cc1-c1ccc(Cl)cc1)c1ccncc1,,inconclusive: 20.5%
C/C(=N\NC(=O)c1ccc(NS(=O)(=O)c2cccs2)cc1)c1ccc2ccccc2c1,"inconclusive: 18.4 µM [falling, partial curve, poor fit]",
COc1cc(NS(=O)(=O)c2ccc(Br)cc2)c(OC)cc1NC(=O)c1ccco1,,inconclusive: 29.4%
CC1CN=C(N(Cc2ccccc2)C(=O)Nc2ccccc2)S1 (stereo not drawn),,inconclusive: 15.6%
CCCn1c(C(=O)OC)cc2c1ccn2-c1ccc(F)cc1,,inconclusive: 13%
Cc1nn(C(C)C(=O)NCCc2cccs2)c(=O)c2nn(-c3ccccc3)c(C)c12 (stereo not drawn),,inconclusive: 1.46%
CCOC(=O)C1(CCOc2ccccc2)CCN(Cc2ccc(COC)o2)CC1,,inactive
O=C(Nc1ccc([N+](=O)[O-])cc1)Nc1cnccn1,,inconclusive: 11.6%
CCOC(=O)C1=C(C)Nc2nnnn2C1c1ccc(OC)c(Br)c1 (stereo not drawn),,inconclusive: -18.6%
Cc1ccc(S(=O)(=O)N2C(=S)SCC2(C)C)cc1,,inconclusive: 1.55%
O=C(NCCc1ccccc1)c1cc(=O)c2ccccc2o1,,inconclusive: -7.4%
COc1ccc(CN(C(=O)c2cc(=O)c3ccccc3o2)C2CCS(=O)(=O)C2)cc1OC (stereo not drawn),,inactive
NC(=O)c1ccc(-n2c(CCC(=O)O)ccc2-c2cccs2)cc1,,inconclusive: -30.1%
CCC(CC)C(=O)Nc1nnc(S(=O)(=O)Nc2ccccc2C)s1,,inactive
Cc1ccc(S(=O)(=O)N/N=C2/CC(c3ccccc3)Oc3ccccc32)cc1 (stereo not drawn),,inconclusive: 12.6%
Cc1ccc(Cl)c(OCC(=O)Nc2ccc(S(=O)(=O)NC3=NCCCCC3)cc2)c1,,inactive
COC(=O)c1sccc1NC(=O)COc1ccc(Cl)cc1Cl,,inconclusive: -12.3%
OCCCNc1nc(-c2ccc(Br)cc2)nnc1-c1ccc(Cl)cc1,,inconclusive: -12.1%
COc1ccc(NC(=O)c2ccc(NCC3CCCO3)c([N+](=O)[O-])c2)cc1 (stereo not drawn),,inconclusive: -2.77%
CCOC(=O)Cn1nnnc1C(C(C)C)N(Cc1cccs1)Cc1cc2cc(C)ccc2[nH]c1=O (stereo not drawn),,inconclusive: 21.2%
O=C(Cn1cnc2ccccc2c1=O)c1c[nH]c2ccccc12,,inactive
Clc1ccccc1-c1nnc2sc(CCc3ccccc3)nn12,,inconclusive: 5.78%
COC(=O)/C=C1\SC(=Nc2ccccc2)NC1=O,,inconclusive: -2.41%
CC(C)(C)c1ccc(C(=O)c2c[nH]c(C(=O)O)c2)cc1,,inconclusive: -9.75%
COc1cc(OC)c(N(C)S(=O)(=O)c2cccc(C(=O)NC3=NCCS3)c2)cc1Cl,,inconclusive: -25.8%
COc1cccc(C(=O)Nc2ccc(N(C)C)cc2)c1OC,"inconclusive: 29.1 µM [falling, single point]",

# Of the compounds above, these have a COOH group:
Compound,Potency,"activity change, negative = inhibition"
NC(=O)c1ccc(-n2c(CCC(=O)O)ccc2-c2cccs2)cc1,,inconclusive: -30.1%
CC(C)(C)c1ccc(C(=O)c2c[nH]c(C(=O)O)c2)cc1,,inconclusive: -9.75%

# The list goes on.

Compound,Potency,"activity change, negative = inhibition"
Cc1cccc(N2CCN(CC3CCCCC3)CC2)c1C,,inactive
CCOc1ncccc1C(=O)OCC(=O)Nc1c(C)cccc1C,,inconclusive: 10.2%
O=C(Nc1nc(-c2ccccc2)ns1)c1ccc(Cl)cc1,"inconclusive: 0.447 µM [rising, full curve, poor fit]",
O=C(Nc1ccc(Oc2cccnc2)cc1)c1cccc([N+](=O)[O-])c1,,inconclusive: 0.638%
COc1ccc(C)cc1Nc1n[n+](C)c(-c2c3ccccc3cc3ccccc23)s1,,inconclusive: -17.5%
COc1ccc(CNC(=O)C2CC(=O)N(c3ccc(OCC(=O)N4CCCCC4)cc3)C2)cc1 (stereo not drawn),,inconclusive: 0.629%
O=C(CCN1C(=O)C2CCCCC2C1=O)Nc1nc2c(F)cc(F)cc2s1 (stereo not drawn),,inconclusive: 7.17%
O=C(Nc1ccc(Cl)cc1Cl)N1CCN(c2ncccn2)CC1,,inconclusive: 19.4%
Cc1cc(NC(=O)c2ccc3nccnc3c2)ccc1Br,,inconclusive: -3.84%
O=C(NCC1CCCO1)c1cccc(NS(=O)(=O)c2ccccc2)c1 (stereo not drawn),,inconclusive: 7.43%
CC1CC(C)CN(C(=O)CSCC(=O)O)C1 (stereo not drawn),,inconclusive: 3.07%
O=C(Cn1c(-c2ccccc2)noc1=O)N1CCC(Cc2ccccc2)CC1,,inconclusive: 1.16%
O=C(COc1ccccc1)N1CCCC1,,inactive
CCOC(=O)Cc1nc2ccccc2[nH]1,,inconclusive: 19.9%
CCOC(=O)c1cc(-c2ccccc2)n(CCC(=O)NCCc2ccc(C)cc2)c1C,,inconclusive: 4.28%
C/C(=N\NC(=O)c1ccco1)c1ccc(NC(=O)c2cccs2)cc1,"inconclusive: 23.1 µM [falling, single point]",
Cc1noc(C)c1NC(=O)Nc1ccc2c(c1)CC(=O)N([C@@H](C)CO)C[C@@H](C)[C@@H](CN(C)C(=O)Nc1cccc3ccccc13)O2,,inconclusive: 0.156%
O=C(COC(=O)CNC(=O)C1CCCCC1)Nc1ccc2ccccc2c1,,inconclusive: 18.3%
O=S(=O)(/C=C/c1cccc(Br)c1)N1CCOCC1,,inactive
COc1ccc(OC)c(NC(=O)C(=O)NNC(=O)COc2ccc(Br)cc2C)c1,"inconclusive: 0.708 µM [falling, partial curve, poor fit]",
CCOC(=O)c1cc(C#N)c(Oc2ccc(F)cc2)nc1-c1ccccc1,"inconclusive: 14.1 µM [rising, partial curve, poor fit]",
Cc1ccnc(NS(=O)(=O)c2ccc(NC(=O)c3ccc([N+](=O)[O-])s3)cc2)n1,,inconclusive: 8.23%
CC1CCN(c2nc3ccc(C(=O)NCCCN4CCCCC4)cc3s2)CC1,"inconclusive: 0.794 µM [falling, full curve, poor fit]",
Cc1cccc(CNC(=O)c2ccc(NC(=O)C3=CSCCO3)cc2)c1,,inactive
CC(C)Cn1cnc2c1c(=O)n(CC(=O)O)c(=O)n2Cc1ccccc1,,inconclusive: 1.2%
Cc1ccc(C(=O)Nn2c(O)c(C=C3N=c4ccccc4=N3)sc2=S)cc1,"inconclusive: 0.891 µM [falling, full curve, poor fit]",

# — PubChem BioAssay AID493014 (National Center for Advancing Translational Sciences (NCATS), 2011)
